Reference: patent US20100280095A1
Results are given in words; binding and its absence hold for the method and conditions named. Binding seen in cells or lysates may run through a third protein. Some entries that bind do so weakly or less than the wild type. Sequences can lack the tags named with a protein.

Amino acid sequences for entries named in this document (tags omitted). Residues count along the entry.
UniProt Q15796, residues 2-467: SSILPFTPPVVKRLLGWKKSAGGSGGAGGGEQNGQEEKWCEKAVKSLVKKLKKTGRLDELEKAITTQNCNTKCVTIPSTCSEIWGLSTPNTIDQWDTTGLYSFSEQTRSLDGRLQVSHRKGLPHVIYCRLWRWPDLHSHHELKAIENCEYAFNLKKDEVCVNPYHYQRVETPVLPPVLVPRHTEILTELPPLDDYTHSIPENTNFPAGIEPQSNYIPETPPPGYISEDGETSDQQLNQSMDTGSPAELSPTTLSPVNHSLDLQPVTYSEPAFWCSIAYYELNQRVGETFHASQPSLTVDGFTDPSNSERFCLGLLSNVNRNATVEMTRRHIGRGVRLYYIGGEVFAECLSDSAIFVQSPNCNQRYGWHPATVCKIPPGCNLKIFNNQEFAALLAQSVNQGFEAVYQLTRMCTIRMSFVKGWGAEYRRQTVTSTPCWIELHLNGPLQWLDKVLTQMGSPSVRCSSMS
UniProt P84022, residues 2-425: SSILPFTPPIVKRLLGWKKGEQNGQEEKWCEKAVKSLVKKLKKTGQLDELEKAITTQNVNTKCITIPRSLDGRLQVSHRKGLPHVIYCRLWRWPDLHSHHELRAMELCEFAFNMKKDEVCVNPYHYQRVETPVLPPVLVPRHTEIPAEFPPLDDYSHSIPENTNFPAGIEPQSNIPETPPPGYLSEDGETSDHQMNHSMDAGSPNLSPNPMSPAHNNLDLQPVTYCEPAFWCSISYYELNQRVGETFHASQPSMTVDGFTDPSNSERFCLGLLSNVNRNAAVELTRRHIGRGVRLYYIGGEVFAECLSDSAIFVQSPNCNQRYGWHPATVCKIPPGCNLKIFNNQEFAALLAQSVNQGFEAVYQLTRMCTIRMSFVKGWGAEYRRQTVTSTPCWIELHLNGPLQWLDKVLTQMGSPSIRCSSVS

Columns and labels:
[1] = biological target: endogenous Smad2 of 293T cells (UniProt Q15796); assay: summary of the co-immunoprecipitation result
[2] = biological target: endogenous Smad3 of 293T cells (UniProt P84022); assay: summary of the co-immunoprecipitation result
[3] = biological target: endogenous Smad2 of 293T cells (UniProt Q15796); assay: co-immunoprecipitation (FIG. 2a legend): anti-c-Myc IP, anti-Smad2 immunoblot
[4] = biological target: endogenous Smad3 of 293T cells (UniProt P84022); assay: co-immunoprecipitation (FIG. 2a legend): anti-c-Myc IP, anti-Smad3 immunoblot
[5] = biological target: endogenous Smad2 of 293T cells (UniProt Q15796); assay: co-immunoprecipitation: anti-c-Myc IP of 293T whole cell extract, immunoblot with anti-Smad2
[6] = biological target: endogenous Smad3 of 293T cells (UniProt P84022); assay: co-immunoprecipitation: anti-c-Myc IP of 293T whole cell extract, immunoblot with anti-Smad3

Measured: binding

B1: c-Myc-tagged PDLIM2 (murine Pdlim2 coding region in pCMV-Myc) (enzyme, not shown: small tags and cut ends)
chain: MALTVDVAGPAPWGFRISGGRDFHTPIIVTKVTERGKAEAADLRPGDIIVAINGQSAENMLHAEAQSKIRQSASPLRLQLDRSQTASPGQTNGEGSLEVLATRFQGSLRTHRDSQSSQRSACFSPVSLSPRPCSPFSTPPPTSPVALSKEDMIGCSFQSLTHSPGLAAAHHLTYPGHPTSQQAGHSSPSDSAVRVLLHSPGRPSSPRFSSLDLEEDSEVFKMLQENRQGRAAPRQSSSFRLLQEALEAEERGGTPAFVPSSLSSQASLPTSRALATPPKLHTCEKCSVNISNQAVRIQEGRYRHPGCYTCADCGLNLKMRGHFWVGNELYCEKHARQRYSMPGTLNSRA
binds: [1] | [2] | [3] | [4] | [5] | [6]
